PMC8986778, “Citrullination of glucokinase is linked to autoimmune diabetes” (Nature Communications, 2022)
“Also recorded” adds a separate entry of the source.

System: recombinant human pancreatic glucokinase
Assay: Identification of citrullination sites in PAD-treated rhGK by LC-MS/MS
Conditions: PAD-treated rhGK (Hexokinase-4 with DDK tag, P35557), LC-MS/MS Orbitrap Fusion, Mascot search; residue numbered within the peptide
Protocol: For in vitro citrullination, 0.1U of rabbit peptidylarginine deiminase (PADI2; Sigma–Aldrich) were added to 50 µg of recombinant human pancreatic glucokinase (rhGK; LS-G3456, LSBio) in reaction buffer (0.1 M Tris-HCl, 10 mM CaCl2 and 5 mM DTT) at 37 °C for 2.5 hrs and kept at -80 °C in multiple aliquots to avoid freeze and thaw until used. Minimum 6 µg of rhGK and PAD-treated-rhGK were reduced, alkylated and tryptic digested for LS-MS/MS analysis. Data were collected on a QE-Plus mass spectrometer coupled to a NanoACQUITY UPLC (Waters Inc.). A Waters Symmetry® C18 180 μm × 20 mm trap column and a 1.7-μm, 75 μm × 250 mm nanoACQUITY UPLC column (35 °C) was utilized for the separation. Collected LC–MS/MS data were processed using Proteome Discoverer Software (v. 2.2, Thermo Fisher Scientific) and searched were carried out in MASCOT Search Engine (Matrix Science) using the below parameters; oxidation (M), deamidated (N/Q) and citrullination (R) as the variable modifications and carbamidomethylation (C) as a fixed modification. Mascot results were loaded into Scaffold Q + S 4.11.0 and then Scaffold PTM 3.3.0 was used to re-analyze MS/MS spectra identified as citrulline modified peptides. Calculated Ascore values for citrullinated peptides containing the neutral loss of isocyanic acid (−43 Da)[54] indicate the level of site localization probabilities to assess the level of confidence in each citrullination PTM localization. Scaffold PTM then combines localization probabilities for all peptides containing each identified PTM site to obtain the best estimated probability that a PTM is present at that particular site. Manual MS/MS inspection of the modified peptides were also carried out to ensure correct assignments/localizations of the citrullination sites (detailed MS/MS spectra are presented in Source Data-File 2 spreadsheet).

## ASGAEGNNVVGLLRDAIK
  Variable modifications: citrullinated (Deamidated R) residue identified in the tryptic peptide: R14 : Deamidated (R), with neutral losses 0.0000(shown in table), 43.0058

## GAFETRFVSQVESDTGDR
  Variable modifications: citrullinated (Deamidated R) residue identified in the tryptic peptide: R6 : Deamidated (R), with neutral losses 43.0058(shown in table), 0.0000

## GAFETRFVSQVESDTGDRK
  Variable modifications: citrullinated (Deamidated R) residue identified in the tryptic peptide: R6 : Deamidated (R), with neutral losses 0.0000(shown in table), 43.0058; also recorded: R18 : Deamidated (R), with neutral losses 0.0000(shown in table), 43.0058

## GLRLETHEEASVK
  Variable modifications: citrullinated (Deamidated R) residue identified in the tryptic peptide: R3 : Deamidated (R), with neutral losses 0.0000(shown in table), 43.0058

## QIYNILSTLGLRPSTTDCDIVR
  Variable modifications: citrullinated (Deamidated R) residue identified in the tryptic peptide: R12 : Deamidated (R), with neutral losses 0.0000(shown in table), 43.0058

## TRGAFETR
  Variable modifications: citrullinated (Deamidated R) residue identified in the tryptic peptide: R2 : Deamidated (R), with neutral losses 43.0058(shown in table), 0.0000
